Source: patent US4943646A, “Gallium complexes and solvent extraction of gallium” (Monsanto Company, priority 1987, dated 1990)
Several values for one entry are separate records, joined by “and”; a condition that tells them apart may be missing. Identical values can stand only once.

How the values were obtained:
[1] = Stirred-beaker extraction, 2% H2SO4 wash and 30% H2SO4 strip of gallium from phosphate treater dust leachate (Examples 1-7); settings: for Ga Yield / Ga Strip / Ga Extraction: Table 3 summary; for Ga Strip: 30% H2SO4; for Ga Strip / Ga Extraction: time in parentheses in table; for Ga removed in washing: three washes with 2% (dilute) sulfuric acid
[2] = Same extraction/wash/strip cycle, zinc (Examples 1-6)
[3] = Same extraction/wash/strip cycle, iron (Examples 1-7); settings: for Fe Extraction / Fe Yield / Fe Strip: Table 3 summary; for Fe Strip / Fe concentration in H2SO4 stripping solution: 30% H2SO4; for Fe extracted: aqueous solution after extraction; for Fe stripping efficiency: 30% sulfuric acid
[4] = Same extraction/wash/strip cycle, aluminum (Examples 1-6)
[5] = Extraction from GaCl3 and caustic stripping of gallium (Example 20)
[6] = Comparative extraction and stripping, Al (Example 11)
[7] = Comparative extraction and stripping, Ga (Example 11)
[8] = Comparative extraction and stripping, Fe (Example 11)
[9] = Gallium extraction with extractant and modifier (Example 14)
[10] = Minimum pH at which 50% of Fe (III) was extractible (Table 11)
[11] = Stripping of Fe (III) from hydroxamic acids with sulfuric acid (Table 10)
[12] = Extraction with different modifiers, Al (Example 16); settings: modifier (20%) with 40% N-methyl naphthenohydroxamic acid
[13] = Extraction with different modifiers, Zn (Example 16); settings: modifier (20%) with 40% N-methyl naphthenohydroxamic acid
[14] = Extraction with 40% N-methyl naphthenohydroxamic acid and different modifiers, Ga (Example 16); settings: modifier (20%) with 40% N-methyl naphthenohydroxamic acid; pH 0.99, 60 °C, 10 min
[15] = Extraction with different modifiers, Fe (Example 16); settings: modifier (20%) with 40% N-methyl naphthenohydroxamic acid
[16] = Extraction with different modifiers, P (Example 16); settings: modifier (20%) with 40% N-methyl naphthenohydroxamic acid
[17] = Gallium extraction with a bis-hydroxamic acid (Example 19)
[18] = Gallium extraction with an N-alkyl hydroxamic acid as modifier (Example 15); settings: 40% extractant
[19] = Extraction and stripping, synthetic zinc leachate, Ga (Example 18)
[20] = Extraction and stripping, synthetic zinc leachate, Fe (Example 18)
[21] = 30% H2SO4, one hour (60 minutes)
[22] = modifier nonylphenol, percentages by line, 60 °C, pH 1

N-n-propylnaphthenohydroxamic acid
Ga stripped ([1]; 30% H2SO4, 5 minutes): 77% | Ga stripped ([1]; 30% H2SO4, 15 minutes): 74% | Ga extracted ([1]; 5 minutes): 8% | Ga extracted ([1]; 10 minutes): 25% | Ga extracted ([1]; 20 minutes): 54% | Ga extracted ([1]; 25 minutes): 60% | Ga extracted ([1]; 35 minutes): 65% | Ga Yield [1]: 50% | Ga Strip [1]: 77% | Ga Extraction [1]: 65% | Ga removed in washing [1]: 3% | Zn extracted [2]: 5% | Fe Extraction [3]: 3% | Fe Yield [3]: 9% | Fe Strip [3]: 100% | Fe extracted [3]: 3% | Al extracted [4]: 8%

CCCCCCCCCCCCCCCCCC(=O)N(C)O [N-methyl stearohydroxamic acid]
Ga extracted ([5]; after NaOH to pH 2.24): approximately 98.6% | Ga extracted ([5]; before NaOH addition, pH fell to 0.52, 58.5 °C): about 49% | Ga in aqueous phase ([5]; first NaOH strip): 10,825 ppm | Ga in organic phase ([5]; first NaOH strip): 5112 ppm | Ga stripped ([5]; first NaOH strip): 52.9% | Ga stripped ([5]; second contact, 1.00M NaOH): 85.0% | Ga in organic phase ([5]; second strip, 1.00M NaOH): 813 ppm | Ga in aqueous phase ([5]; second strip, 1.00M NaOH, 54 min, 60.0 °C): 5090 ppm

naphthenohydroxamic acid [reference compound]
% stripped in 18 hours, Al ([6]; Table 8): ~ 0% | % extrac. in 15 min., Al ([6]; feed pH 1.49): 65.2% | Ga stripped ([1]; 30% H2SO4, 5 minutes): 34% | Ga stripped ([1]; 30% H2SO4, 15 minutes): 48% | Ga stripped ([1]; 30% H2SO4, 30 minutes): 58% | Ga stripped ([1]; 30% H2SO4, 1.25 hour): 77% | Ga stripped ([1]; 30% H2SO4, 1.5 hour): 78% | Ga stripped [1, 21]: 69% | Ga extracted ([1]; 5 minutes): 99% | Ga Yield [1]: 78% | Ga Strip [1]: 78% | Ga Extraction [1]: 99% | Ga removed in washing [1]: no Ga was removed in the washings | Zn extracted [2]: 5% | Ga removed from the organic medium by stripping ([7]; 2M H2SO4/2M H3PO4, 70 minutes): 88.5% | additional Ga removed from the organic medium ([7]; 10N H2SO4 added, additional 90.2 hours): 9.5% | % stripped in 18 hours, Ga ([7]; Table 8): 88.5% | % extrac. in 15 min., Ga ([7]; feed pH 1.49): 100% | overall yield of Fe [3]: 10.3% | Fe stripping efficiency [3]: 29% | Fe Extraction [3]: 35% | Fe Yield [3]: 10.3% | Fe Strip [3]: 29% | Fe extracted [3]: 35% | % stripped in 18 hours, Fe ([8]; Table 8): 79.3% | % extrac. in 15 min., Fe ([8]; feed pH 1.49): 100% | Al extracted [4]: 4%

N-methyl naphtheno hydroxamic acid
% EGa [9, 22]: 84.4%

CCCCCCCCCC(=O)N(O)CCCCCC [N-hexyldecanohydroxamic acid]
pH1/2 (minimum pH at which 50% of Fe (III) was extractible) [10]: 3.0 | % STRIPPED (Fe (III)) ([11]; strip H2SO4 1.5 g/l): > 98%

CC(=O)CC(C)C [Methylisobutyl ketone]
% Extracted Al [12]: 0% | % Extracted Zn [13]: 0% | % Extracted Ga [14]: 25% | % Extracted Fe [15]: 0% | % Extracted P [16]: 0%

N-methyl isostearo-hydroxamic acid
% EGa ([9]; modifier N-methyl-hexano HA 19.8%): 72.2% | % EGa ([9]; modifier Sterox ND 19.8%): 27.2% | % EGa ([9]; modifier dodecylphenol 20.1%): 90.4% | % EGa ([9]; modifier neotridecano acid 19.8%): 58.0% | % EGa [9, 22]: 91.2%

CCCCCCCCCC(=O)N(O)C(C)C [N-isopropyldecanohydroxamic acid]
pH1/2 (minimum pH at which 50% of Fe (III) was extractible) [10]: 2.90 | % STRIPPED (Fe (III)) ([11]; strip H2SO4 25 g/l): 98%

CCCCCCCCCCC(CC(=O)N(C)O)C(=O)N(C)O (stereo not shown) [N,N'-dimethyln-decylsuccinodihydroxamic acid]
Ga removed in additional scrubbings ([17]; 20/20 mixtures of H2SO4/H3PO4): over 13% | Ga stripping ([17]; several portions of 20% H2SO4): 76.88% | Ga Extraction ([17]; three successive 10 ml aqueous portions, near 60 °C, pH 1.0, with N-methyldecanohydroxamic acid): 86.3% and 72.79% and 51.55%

CCCCCCCC(=O)N(C)O [N-methyloctano HA]
% STRIPPED (Fe (III)) ([11]; strip H2SO4 150 g/l): 94%

neodecanohydroxamic acid [reference compound]
Ga stripped ([1]; 30% H2SO4, three hours): 4% | Ga extracted ([1]; 5 minutes): 99% | Ga Yield [1]: 4% | Ga Strip [1]: 4% | Ga Extraction [1]: 99% | Ga removed in washing [1]: about 1% | Fe concentration in aqueous solution after extraction [3]: 480 ppm | Fe concentration in H2SO4 stripping solution [3]: 4.4 ppm | Fe stripping efficiency [3]: 0.2% | Fe Extraction [3]: 79% | Fe Yield [3]: 0.2% | Fe Strip [3]: 0.2% | Fe extracted [3]: 79%

CCCCCCCCCc1ccc(O)cc1 [4-nonylphenol]
% Extracted Al [12]: 0% | % Extracted Zn [13]: 10% | % Extracted Ga [14]: 90% | % Extracted Fe [15]: 50% | % Extracted P [16]: 0%

C=CC(CC(C)(C)CC(C)(C)C)c1ccc2cccnc2c1O (stereo not shown) [Kelex-100]
% Extracted Ga [14]: 97%

CCCCCCN(O)C(=O)CCCC [N-hexylpentano HA]
% STRIPPED (Fe (III)) ([11]; strip H2SO4 100 g/l): > 98%

CCCCCCCCOP(=O)(O)Oc1ccccc1 [Octyl, phenyl hydrogenphosphate]
% Extracted Al [12]: 0% | % Extracted Zn [13]: 10% | % Extracted Ga [14]: 66% | % Extracted Fe [15]: 50% | % Extracted P [16]: 0%

CCCCCCCCCC(=O)N(C)O [N-methyldecanohydroxamic acid]
pH1/2 (minimum pH at which 50% of Fe (III) was extractible) [10]: 1.08 | % EGa ([18]; no modifier, pH 1.02, 60 °C): 63.0% | % STRIPPED (Fe (III)) ([11]; strip H2SO4 100 g/l): > 98%

N-methylneodecanohydroxamic acid
overall yield (recovery) of Ga from extraction, washing and stripping [1]: 16% | Ga stripped ([1]; 30% H2SO4, 5 minutes): 84% | Ga stripped ([1]; 30% H2SO4, 15 minutes): completed in 15 minutes | Ga extracted ([1]; 5 minutes): 3% | Ga extracted ([1]; 1.5 hours): 16% | Ga Yield [1]: 16% | Ga Strip [1]: 100% | Ga Extraction [1]: 16% | overall yield of Zn [2]: 0.03% | overall yield of Fe [3]: 0.2% | Fe Extraction [3]: 2% | Fe Yield [3]: 2% | overall yield of Al [4]: near zero

N-ethylnaphthenohydroxamic acid
overall yield (recovery) of Ga from extraction, washing and stripping [1]: 42% | Ga stripped ([1]; 30% H2SO4, 5 minutes): 68% | Ga stripped ([1]; 30% H2SO4, 20 minutes): 79% | Ga stripped ([1]; 30% H2SO4, 25 minutes): 71% | Ga Yield [1]: 42% | Ga Strip [1]: 71% | Ga Extraction [1]: 61% | Ga removed in washing [1]: 2% | Zn extracted [2]: ≤ 1% | overall yield of Zn [2]: 0.002% | Zn concentration in aqueous solution after extraction ([2]; Table 2): ≥ 53,222 ppm | Zn concentration in washings ([2]; Table 2, 2% sulfuric acid): 226 ppm | Zn stripping % in washings ([2]; Table 2, 2% sulfuric acid): 99.6% | Zn concentration in H2SO4 stripping solution ([2]; Table 2, 30% H2SO4): 1 ppm | Zn stripping % ([2]; Table 2, 30% H2SO4): 0.4% | Fe concentration in aqueous solution after extraction [3]: 1900 ppm | overall yield of Fe [3]: 3% | Fe concentration in H2SO4 stripping solution [3]: ~ 84 ppm | Fe stripping efficiency [3]: ~ 7% | Fe concentration in washings ([3]; Table 2, 2% sulfuric acid): 4.3 ppm | Fe stripping % in washings ([3]; Table 2, 2% sulfuric acid): .36% | Fe Extraction [3]: 39% | Fe Yield [3]: 3% | Fe Strip [3]: 7% | Fe extracted [3]: 39% | Al extracted [4]: 10% | overall yield of Al [4]: 0.1% | Al concentration in aqueous solution after extraction ([4]; Table 2): 2020 ppm | Al concentration in washings ([4]; Table 2, 2% sulfuric acid): 11.3 ppm | Al stripping % in washings ([4]; Table 2, 2% sulfuric acid): 85% | Al stripping % ([4]; Table 2, 30% H2SO4): 17%

CCCCCCCCC(CCCCCC)C(=O)N(C)O (stereo not shown) [N-methyl 2-hexyldecanohydroxamic acid]
Ga stripped in the first contact ([19]; 2M H2SO4): practically all the Ga was stripped in the one contact | % Extraction Ga ([19]; 15 min): 10.3% | % Extraction Fe ([20]; 15 min, based on raffinate vs leachate): ~ 0% | % Extraction Fe ([20]; based on iron total concentrations in strip solution): ~ 2.1%

neotridecanohydroxamic acid
pH1/2 (minimum pH at which 50% of Fe (III) was extractible) [10]: < 0 | % STRIPPED (Fe (III)) ([11]; strip H2SO4 150 g/l): 36%

CCCCOP(=O)(CCCC)OCCCC [Di-n-butyl butylphosphonate]
% Extracted Al [12]: 0% | % Extracted Zn [13]: 10% | % Extracted Ga [14]: 3% | % Extracted Fe [15]: 0% | % Extracted P [16]: 0%

N-methyl isostearohydroxamic acid
% EGa ([18]; modifier N-methyldecanohydroxamic acid 20%): 68.6% | % EGa ([18]; modifier N-methyldodecyl-hydroxamic acid 20%): 50.1% | % EGa ([18]; no modifier, pH 1.02, 60 °C): 52.1% | % EGa ([9]; modifier nonylphenol 23.5% & 20% neotridecano acid): 93.7% | % EGa [9, 22]: 92.6% and 95.5% | % EGa ([9]; modifier printed as ditto mark under none, 20%): 92.6% | % EGa ([9]; no modifier, 60 °C, pH 1, 10 min): 70%

CCCCCCCCCCc1ccc(C(=O)N(C)O)cc1 [N-methyl-p-n-decylphenylhydroxamic acid]
overall yield (recovery) of Ga from extraction, washing and stripping [1]: 37% | Ga level in combined wash solution ([1]; 2% sulfuric acid washes, 65.9 ml): 0.8 ppm | Ga stripped ([1]; 30% H2SO4, 5 minutes): 6% | Ga stripped ([1]; 30% H2SO4, 15 minutes): 24% | Ga stripped ([1]; 30% H2SO4, 30 minutes): 37% | Ga stripped [1, 21]: 37% | Ga extracted ([1]; 5 minutes): 87% | Ga extracted ([1]; 10 minutes): 99% | overall yield of Fe [3]: 4% | Fe stripping efficiency [3]: 6% | Fe extracted [3]: 81%
